The other results are listed elsewhere or left out.
Assays:
Test in all cases: log2 fold change, soluble protein after heating vs DMSO (PISA); higher = thermal stabilisation; K562 lysate, 10 uM; active = over 0.2 and 3.5 SD of the protein, either way, in both replicates (recomputed)
ibrutinib = compound: C=CC(=O)N1CCC[C@@H](n2nc(-c3ccc(Oc4ccccc4)cc3)c3c(N)ncnc32)C1 [ibrutinib]
Procedure, shortened: (§1)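 Thermal stability, expressed as log-two fold change relative to solvent controls, is given from duplicates. Crude K562 extract in PBS pH 7.4 with 1 mM MgCl2, at 1 mg/mL protein, was treated with 10 μM compound for 30 min and heated in aliquots for 3 min across 48°C-58°C. After pooling, adjustment to 0.5% NP-40 at 4°C and centrifugation at 21,000xg for 90 min, supernatant protein was measured by TMTpro 16plex LC-MS/MS with channel sums equalised.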

The chains behind the UniProt entries cited, without tags or fusion partners. Where a name states a change or a piece, a line headed by the entry shows the natural chain unless it says otherwise.
UniProt Q6PIU2: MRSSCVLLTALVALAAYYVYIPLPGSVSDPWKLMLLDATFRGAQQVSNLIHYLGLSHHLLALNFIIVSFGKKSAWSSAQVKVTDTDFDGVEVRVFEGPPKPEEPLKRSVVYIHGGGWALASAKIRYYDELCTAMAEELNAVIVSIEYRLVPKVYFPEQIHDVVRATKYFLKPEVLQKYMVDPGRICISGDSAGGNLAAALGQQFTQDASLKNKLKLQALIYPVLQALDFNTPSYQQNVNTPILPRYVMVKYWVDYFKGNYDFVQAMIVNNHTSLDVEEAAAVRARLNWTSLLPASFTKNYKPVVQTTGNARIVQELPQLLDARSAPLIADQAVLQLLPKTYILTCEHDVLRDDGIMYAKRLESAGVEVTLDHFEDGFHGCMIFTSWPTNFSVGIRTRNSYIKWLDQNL
UniProt Q9Y6Q9, whole entry, looked up: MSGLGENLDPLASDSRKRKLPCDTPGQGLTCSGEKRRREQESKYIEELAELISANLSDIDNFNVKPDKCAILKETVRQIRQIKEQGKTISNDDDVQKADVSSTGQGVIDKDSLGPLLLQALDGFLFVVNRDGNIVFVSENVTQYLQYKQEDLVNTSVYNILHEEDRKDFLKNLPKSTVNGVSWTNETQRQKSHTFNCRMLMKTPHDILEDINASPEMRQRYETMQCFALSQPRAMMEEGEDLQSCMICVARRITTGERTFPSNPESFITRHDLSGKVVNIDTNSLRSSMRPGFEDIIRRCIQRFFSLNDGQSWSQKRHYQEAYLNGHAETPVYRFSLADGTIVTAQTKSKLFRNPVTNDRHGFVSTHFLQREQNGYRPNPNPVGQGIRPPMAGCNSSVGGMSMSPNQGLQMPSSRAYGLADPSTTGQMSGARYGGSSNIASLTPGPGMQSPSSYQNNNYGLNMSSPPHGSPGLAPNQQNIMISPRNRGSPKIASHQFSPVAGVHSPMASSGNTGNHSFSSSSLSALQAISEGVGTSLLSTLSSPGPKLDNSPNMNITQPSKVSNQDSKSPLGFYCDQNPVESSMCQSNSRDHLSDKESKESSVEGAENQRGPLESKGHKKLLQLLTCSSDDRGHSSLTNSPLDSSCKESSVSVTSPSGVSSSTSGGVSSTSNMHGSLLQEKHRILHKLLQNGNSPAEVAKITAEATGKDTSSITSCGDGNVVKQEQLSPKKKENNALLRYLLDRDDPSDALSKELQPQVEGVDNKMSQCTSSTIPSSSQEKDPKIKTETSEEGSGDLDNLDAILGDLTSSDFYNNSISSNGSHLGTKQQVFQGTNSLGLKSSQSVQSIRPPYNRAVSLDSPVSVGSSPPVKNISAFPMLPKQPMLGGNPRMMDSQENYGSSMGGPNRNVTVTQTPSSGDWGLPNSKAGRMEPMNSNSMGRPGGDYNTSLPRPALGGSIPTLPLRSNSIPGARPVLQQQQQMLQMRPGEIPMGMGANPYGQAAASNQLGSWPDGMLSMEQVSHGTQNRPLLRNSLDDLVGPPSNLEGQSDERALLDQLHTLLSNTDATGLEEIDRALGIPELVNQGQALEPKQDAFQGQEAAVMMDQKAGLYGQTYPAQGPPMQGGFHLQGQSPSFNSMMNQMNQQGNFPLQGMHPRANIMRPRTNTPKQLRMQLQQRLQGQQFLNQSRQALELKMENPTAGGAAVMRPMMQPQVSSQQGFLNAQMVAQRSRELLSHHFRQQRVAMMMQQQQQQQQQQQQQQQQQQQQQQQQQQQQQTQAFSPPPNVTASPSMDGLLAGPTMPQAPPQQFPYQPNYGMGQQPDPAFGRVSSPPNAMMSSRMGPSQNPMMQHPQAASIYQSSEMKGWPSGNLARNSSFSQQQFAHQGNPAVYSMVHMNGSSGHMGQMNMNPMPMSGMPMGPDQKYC
UniProt Q99733: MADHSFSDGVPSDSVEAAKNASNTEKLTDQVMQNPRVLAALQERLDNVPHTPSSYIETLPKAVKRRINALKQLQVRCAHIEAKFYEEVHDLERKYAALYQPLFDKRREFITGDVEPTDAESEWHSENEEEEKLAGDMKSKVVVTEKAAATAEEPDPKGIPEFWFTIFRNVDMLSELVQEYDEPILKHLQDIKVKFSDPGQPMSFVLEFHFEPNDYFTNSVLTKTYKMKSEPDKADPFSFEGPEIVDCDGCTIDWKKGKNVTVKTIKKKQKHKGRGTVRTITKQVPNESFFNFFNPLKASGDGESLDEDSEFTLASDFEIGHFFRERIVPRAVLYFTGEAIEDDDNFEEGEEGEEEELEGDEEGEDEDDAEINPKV
UniProt Q13772: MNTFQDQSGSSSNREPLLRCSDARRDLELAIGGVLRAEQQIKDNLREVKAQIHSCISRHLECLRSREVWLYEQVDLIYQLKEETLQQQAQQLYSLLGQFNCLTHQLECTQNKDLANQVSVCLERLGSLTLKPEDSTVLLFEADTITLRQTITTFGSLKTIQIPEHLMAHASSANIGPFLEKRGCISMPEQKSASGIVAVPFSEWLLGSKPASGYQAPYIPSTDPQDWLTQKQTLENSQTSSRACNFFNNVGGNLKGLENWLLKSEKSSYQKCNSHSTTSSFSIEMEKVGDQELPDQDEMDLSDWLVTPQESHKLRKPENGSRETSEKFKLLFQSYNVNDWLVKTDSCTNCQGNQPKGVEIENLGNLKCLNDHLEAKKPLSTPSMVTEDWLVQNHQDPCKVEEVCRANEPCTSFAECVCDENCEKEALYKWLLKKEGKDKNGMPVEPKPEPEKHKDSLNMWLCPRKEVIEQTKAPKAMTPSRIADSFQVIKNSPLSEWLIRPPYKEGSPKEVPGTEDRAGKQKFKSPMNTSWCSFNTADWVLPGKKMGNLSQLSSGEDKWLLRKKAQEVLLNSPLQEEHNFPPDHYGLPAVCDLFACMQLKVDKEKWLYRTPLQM
UniProt Q969H8: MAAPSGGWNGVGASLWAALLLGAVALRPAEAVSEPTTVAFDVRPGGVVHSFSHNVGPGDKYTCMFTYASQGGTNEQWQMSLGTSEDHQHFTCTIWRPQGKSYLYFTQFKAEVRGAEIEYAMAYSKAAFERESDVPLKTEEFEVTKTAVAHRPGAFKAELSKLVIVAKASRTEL
UniProt Q68D85: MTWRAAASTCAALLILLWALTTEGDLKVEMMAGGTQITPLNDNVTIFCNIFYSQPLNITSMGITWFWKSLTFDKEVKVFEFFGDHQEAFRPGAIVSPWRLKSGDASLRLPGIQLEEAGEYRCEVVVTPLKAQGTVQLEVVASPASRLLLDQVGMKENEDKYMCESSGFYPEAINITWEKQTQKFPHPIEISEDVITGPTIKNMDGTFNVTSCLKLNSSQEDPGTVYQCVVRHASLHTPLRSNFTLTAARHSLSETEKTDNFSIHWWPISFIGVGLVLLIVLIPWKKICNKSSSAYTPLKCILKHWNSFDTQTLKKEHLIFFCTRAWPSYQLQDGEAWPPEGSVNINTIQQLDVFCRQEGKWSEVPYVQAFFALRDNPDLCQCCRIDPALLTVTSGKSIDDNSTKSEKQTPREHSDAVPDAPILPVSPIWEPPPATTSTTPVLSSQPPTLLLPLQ
UniProt Q15021, whole entry, looked up: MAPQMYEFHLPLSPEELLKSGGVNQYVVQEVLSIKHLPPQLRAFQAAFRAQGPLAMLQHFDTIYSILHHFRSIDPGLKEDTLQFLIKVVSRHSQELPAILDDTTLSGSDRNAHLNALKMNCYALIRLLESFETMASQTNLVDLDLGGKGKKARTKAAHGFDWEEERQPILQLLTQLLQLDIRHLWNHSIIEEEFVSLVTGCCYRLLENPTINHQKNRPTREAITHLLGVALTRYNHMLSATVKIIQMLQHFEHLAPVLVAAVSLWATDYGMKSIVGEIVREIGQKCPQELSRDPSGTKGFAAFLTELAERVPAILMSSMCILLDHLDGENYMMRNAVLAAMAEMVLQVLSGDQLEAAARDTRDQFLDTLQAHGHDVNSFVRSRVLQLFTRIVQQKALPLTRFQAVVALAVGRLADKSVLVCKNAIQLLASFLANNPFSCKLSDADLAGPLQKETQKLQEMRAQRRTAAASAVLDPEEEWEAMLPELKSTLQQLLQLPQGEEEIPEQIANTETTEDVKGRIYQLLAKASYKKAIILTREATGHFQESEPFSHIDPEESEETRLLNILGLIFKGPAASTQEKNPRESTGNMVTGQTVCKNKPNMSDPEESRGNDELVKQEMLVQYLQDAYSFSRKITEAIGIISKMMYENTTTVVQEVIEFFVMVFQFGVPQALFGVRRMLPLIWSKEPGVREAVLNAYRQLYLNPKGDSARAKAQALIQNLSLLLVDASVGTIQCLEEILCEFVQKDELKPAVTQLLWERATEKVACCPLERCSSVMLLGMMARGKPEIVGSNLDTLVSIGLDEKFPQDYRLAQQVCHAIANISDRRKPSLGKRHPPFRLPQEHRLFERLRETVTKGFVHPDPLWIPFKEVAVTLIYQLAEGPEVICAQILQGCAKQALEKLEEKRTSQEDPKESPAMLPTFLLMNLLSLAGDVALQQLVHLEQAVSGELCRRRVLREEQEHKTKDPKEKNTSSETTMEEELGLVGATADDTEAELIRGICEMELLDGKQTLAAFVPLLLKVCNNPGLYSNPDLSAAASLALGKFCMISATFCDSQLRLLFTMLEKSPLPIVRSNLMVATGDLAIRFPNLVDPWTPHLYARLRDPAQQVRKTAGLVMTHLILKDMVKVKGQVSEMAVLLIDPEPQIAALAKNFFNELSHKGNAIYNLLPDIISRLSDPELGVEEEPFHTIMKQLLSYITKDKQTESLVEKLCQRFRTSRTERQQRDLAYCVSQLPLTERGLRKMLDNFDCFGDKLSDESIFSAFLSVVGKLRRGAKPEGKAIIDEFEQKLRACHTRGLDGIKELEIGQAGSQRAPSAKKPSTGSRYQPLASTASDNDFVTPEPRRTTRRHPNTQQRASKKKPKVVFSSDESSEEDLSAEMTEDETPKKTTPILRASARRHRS

[1] = compound: CC(=O)c1cnc2ccc(-c3cc(Cl)c(O)c(Cl)c3)nc2c1N[C@H]1CC[C@H](CN(C)C)CC1
Procedure, shortened: as §1

ralimetinib = compound: CC(C)(C)Cn1c(N)nc2ccc(-c3[nH]c(C(C)(C)C)nc3-c3ccc(F)cc3)nc21 [ralimetinib]
Procedure, shortened: as §1

[2] = compound: CC(C)(O)CC(=O)NCCn1ccc2ncnc(Nc3ccc(Oc4cccc(C(F)(F)F)c4)c(Cl)c3)c21
Procedure, shortened: as §1

[3] = compound: CC(C)C1=C2N=C(C=C(N2N=C1)NCC3=CC=CC=C3)NCCCCCCN
Procedure, shortened: as §1

[4] = compound: CC1=C(C(CC(=O)N1)C2=CC=C(C=C2)C(F)(F)F)C(=O)NC3=C(C=C4C(=C3)C=NN4)F
Procedure, shortened: as §1

[5] = compound: CC1=C(C2=C(C=C1)C(=O)C3=CC=CC=C3N2CCCN)C
Procedure, shortened: as §1

[6] = compound: CC1=C(C=C(C=C1)NC(=O)C2=CC(=CC=C2)C(C)(C)C#N)NC3=CC4=C(C=C3)N=CN(C4=O)C
Procedure, shortened: as §1

[7] = compound: CC1=C(C=C(C=C1)NC(=O)C2=CC(=CC=C2)N(C)C)NC(=O)C3=CC=C(C=C3)O
Procedure, shortened: as §1

[8] = compound: CC1=CC=C(C=C1)SC2=C3C=C(SC3=CN=C2)C(=O)N
Procedure, shortened: as §1

vemurafenib = compound: CCCS(=O)(=O)Nc1ccc(F)c(C(=O)c2c[nH]c3ncc(-c4ccc(Cl)cc4)cc23)c1F [vemurafenib]
Procedure, shortened: as §1

[9] = compound: CCCS(=O)(=O)Nc1ccc(F)c(C(=O)c2c[nH]c3ncc(Cl)cc23)c1F
Procedure, shortened: as §1

barasertib = compound: CCN(CCCOc1ccc2c(Nc3cc(CC(=O)Nc4cccc(F)c4)[nH]n3)ncnc2c1)CCOP(=O)(O)O [barasertib]
Procedure, shortened: as §1

[10] = compound: CC[C@@H]1C(=O)N(C)c2cnc(Nc3ccc(C(=O)NC4CCN(C)CC4)cc3OC)nc2N1C1CCCC1
Procedure, shortened: as §1

volasertib = compound: CC[C@@H]1C(=O)N(C)c2cnc(Nc3ccc(C(=O)N[C@H]4CC[C@H](N5CCN(CC6CC6)CC5)CC4)cc3OC)nc2N1C(C)C [volasertib]
Procedure, shortened: as §1

[11] = compound: CCn1c(C(=O)N(C2CC2)C2CC2)cc2c3c(ncn3C)c(Nc3cc(C)n(C)n3)nc21
Procedure, shortened: as §1

[12] = compound: CCn1cc(-c2ccnc3[nH]c(-c4cccc(CN(C)C)c4)cc23)c(-c2ccc(NC(=O)N(C)C)cc2)n1
Procedure, shortened: as §1

[13] = compound: CN1CCC(CNc2ccc3ncc(-c4cccc(OC(F)(F)F)c4)n3n2)CC1
Procedure, shortened: as §1

saracatinib = compound: CN1CCN(CCOc2cc(OC3CCOCC3)c3c(Nc4c(Cl)ccc5c4OCO5)ncnc3c2)CC1 [saracatinib]
Procedure, shortened: as §1

sotrastaurin = compound: CN1CCN(c2nc(C3=C(c4c[nH]c5ccccc45)C(=O)NC3=O)c3ccccc3n2)CC1 [sotrastaurin]
Procedure, shortened: as §1

Measured: log2 fold change

NCEH1 (UniProt Q6PIU2)
inactive: ibrutinib 0.006 | [1] 0.021 | ralimetinib 0.058 | [2] -0.037 | [3] -0.076 | [4] 0.033 | [5] -0.049 | [6] -0.03 | [7] 0.001 | [8] -0.041 | vemurafenib 0.017 | [9] 0.049 | barasertib -0.012 | [10] 0.043 | volasertib 0.019 | [11] -0.021 | [12] 0.025 | [13] -0.012 | saracatinib 0.133 | sotrastaurin 0.065

NCOA3 (UniProt Q9Y6Q9)
inactive: ibrutinib 0.062 | [1] 0.065 | ralimetinib 0.029 | [2] -0.053 | [3] 0.009 | [4] -0.042 | [5] -0.009 | [6] -0.049 | [7] 0.003 | [8] -0.014 | vemurafenib 0.005 | [9] -0.006 | barasertib 0.004 | [10] 0.116 | volasertib -0.007 | [11] -0.005 | [12] 0.058 | [13] 0.037 | saracatinib 0.007 | sotrastaurin 0.022

NAP1L4 isoform 2 (UniProt Q99733)
inactive: ibrutinib -0.023 | [1] -0.001 | ralimetinib 0.004 | [2] -0.003 | [3] -0.02 | [4] -0.001 | [5] -0.004 | [6] -0.024 | [7] 0.015 | [8] -0.013 | vemurafenib -0.02 | [9] 0 | barasertib -0.032 | [10] 0.001 | volasertib 0.003 | [11] 0.024 | [12] 0.052 | [13] -0.021 | saracatinib 0.011 | sotrastaurin 0.007

NCOA4 isoform 4 (UniProt Q13772)
inactive: ibrutinib 0.009 | [1] 0.004 | ralimetinib -0.007 | [2] -0.008 | [3] 0.031 | [4] 0.052 | [5] -0.054 | [6] -0.027 | [7] 0.031 | [8] -0.176 | vemurafenib -0.01 | [9] 0.089 | barasertib 0.054 | [10] -0.006 | volasertib -0.032 | [11] -0.074 | [12] 0.127 | [13] -0.075 | saracatinib 0.012 | sotrastaurin 0.045

MYDGF (UniProt Q969H8)
inactive: ibrutinib -0.024 | [1] -0.013 | ralimetinib -0.034 | [2] -0.006 | [3] -0.043 | [4] -0.013 | [5] 0.016 | [6] 0.015 | [7] -0.013 | [8] -0.014 | vemurafenib 0.028 | [9] -0.014 | barasertib -0.019 | [10] 0.054 | volasertib 0.053 | [11] -0.021 | [12] -0.106 | [13] 0.066 | saracatinib 0.004 | sotrastaurin -0.002

NCALD (UniProt P61601)
inactive: ibrutinib 0.041 | [1] 0.012 | ralimetinib -0.071 | [2] 0.044 | [3] -0.012 | [4] 0.009 | [5] -0.006 | [6] -0.046 | [7] -0.074 | [8] -0.006 | vemurafenib 0.014 | [9] -0.001 | barasertib 0.016 | [10] 0.008 | volasertib 0.044 | [11] -0.014 | [12] -0.05 | [13] 0.039 | saracatinib 0.002 | sotrastaurin 0.035

NCR3LG1 (UniProt Q68D85)
inactive: ibrutinib 0.01 | [1] -0.032 | ralimetinib 0.016 | [2] 0.031 | [3] -0.014 | [4] -0.075 | [5] -0.018 | [6] -0.024 | [7] -0.034 | [8] -0.048 | vemurafenib 0.045 | [9] -0.01 | barasertib 0 | [10] 0.066 | volasertib 0.045 | [11] -0.025 | [12] -0.067 | [13] 0.089 | saracatinib 0.017 | sotrastaurin 0.015

NCAPD2 (UniProt Q15021)
inactive: ibrutinib -0.019 | [1] -0.019 | ralimetinib 0.03 | [2] -0.012 | [3] -0.031 | [4] 0.022 | [5] -0.003 | [6] 0.016 | [7] 0.036 | [8] -0.005 | vemurafenib 0.025 | [9] 0.014 | barasertib 0.016 | [10] -0.027 | volasertib -0.057 | [11] 0.022 | [12] -0.037 | [13] -0.055 | saracatinib 0.006 | sotrastaurin 0.021

From the supplement of paper PMC10849652
